First the molecules themselves.
B1: il10ra_site1_sap_22_mot_HHH_b1_06837_000000150_0001_20_37_H_._HHH_b1_03672_0001_0000700018_0000001_0_0001_af2pred_0001 (protein)
chain: SSSSSDEVEEEVRELLEEAEHVEDPREVVRLLSEASKIALENNDPELFRLIIKVAAELARSSSSS
B2: il10ra_site1_sap_22_mot_HHH_b2_00441_000000175_0001_1_18_H_._HHH_b2_03099_0001_0000200023_0000001_0_0001 (protein)
chain: SSSSDEEMLKELVRAAIRLARQAKDEETRRALEWAMRALAEINNDPELRELVEELEEELNSSSSS
B3: il10ra_site1_normal_mot_39ab2cb694c8b9c1dc7e65c0d672c93e_0001_000000036_0001_53_65_H_._HHH_b2_06018_0001_0000200027_0000001_0 (protein)
chain: SSSSSDEEELEELLEELQRLVEEGDRERALRLALEILRLAVRLSDEEALQRLWKLVKELASSSSS
B4: il10ra_site1_normal_mot_HHH_b2_06497_000000202_0001_1_20_H_._HHH_b2_06487_0001_0000300036_0000002_0 (protein)
chain: SSSSTEENERVYELIRRVFELIQQGNPEEAEKLLEEAEEIIEEANNELLEFALRAAKRALKSSSS
B5: il10ra_site1_normal_mot_HHH_b1_04877_af2_000000063_0001_41_55_H_._HHH_b2_05502_0001_0000300013_0000001_0_af2pred_0001 (protein)
chain: SSSSDLEEETERILKEVEELLEEGNEEEAIQLLFKLLRLLVRAGDEELIRKVEKLAVKVLGSSSS
B6: il10ra_site1_sap_22_mot_HHH_b1_08697_af2_000000298_0001_1_18_H_._HHH_b1_04234_0001_0000200008_0000002_0_0001 (protein)
chain: SSSSNEAYEISREALELLRRGNEEEAKRLLEELAEELEEKGDFNFLFSVRAALRAVEALRTSSSS
B7: il10ra_site1_sap_17_mot_HHH_eva_0351_af2_000000113_0001_1_19_H_._HHH_b2_05367_af2_0001_0000500028_0000001_0_0001 (protein)
chain: SSSSSSEEEIKERVEELLEEAEHIEDERKAIEVALEALQIAIQGQDPELLQLVWEVLERVSSSSS
B8: il10ra_site1_normal_mot_HHH_b2_00984_000000042_0001_1_20_H_._HHH_b2_07840_0001_0000300031_0000001_0 (protein)
chain: SSSSSSDLEELVEELEEAVREGDTEKAAQIAQEAARLAFRLSDQEALQELWRLIRLVASSSSSSS
B9: il10ra_site1_normal_mot_HHH_b1_01693_000000146_0001_1_17_H_._HHH_b1_04789_af2_0001_0000100007_0000001_0 (protein)
chain: SSSSDEEEEVEELIKELEEAVKEGDEELVAELYVQAARLAQRINNPELLEKVQRLAVLFLHSSSS
B10: il10ra_site1_normal_mot_HHH_b2_02053_af2_000000006_0001_3_19_H_._HHH_b1_08577_0001_0000200012_0000001_0 (protein)
chain: SSSSSDAEELYRLSREALELRANGNPEEAREVLEEAIELAREAGNFVFLFALEQLLRDLSSSSSS
B11: il10ra_site1_sap_21_mot_674797ffa33fc4f31d963a7257083862_0001_000000202_0001_1_12_H_._HHH_b1_06212_af2_0001_0000100003_0000001_0_0001 (protein)
chain: SSSSDEDEKEVRELLEEAEELREEGDPREAAKVLQEAVRFAIRSQNPELLRLVWEVVKRLGSSSS
B12: il10ra_site1_sap_16_mot_HHH_b1_07527_000000076_0001_1_15_H_._HHH_b1_02879_af2_0001_0000200010_0000001_0_0001 (protein)
chain: SSSSDEEEELEELREELRELAKEGDLERFLRVAMEVLHIAFQLGDSEVFHELMELAKKIDSSSSS
B13: il10ra_site1_normal_mot_HHH_b1_01849_000000247_0001_21_38_H_._ems_3hM_1289_0001_0000100002_0000002_0_af2pred_dldesign_0_af2pred (protein)
chain: SFAEEVLKKAEENIKLAKEKKDPKLEAAAKYLLEDAKVAIAKNNEEALAQVKLATEKLEEVLKES
B14: il10ra_site1_sap_15_mot_5d0551e3c4357af680d60aaa850e4cea_0001_1_af2_000000133_0001_18_33_H_._HHH_b2_04636_0001_0000200014_0000001_0_0001 (protein)
chain: SSSSSSSSEVEEEVRRLLEEAEENPEHANEILLEAIRLAFRHKNEELLRAIWRVLHELSSSSSSS
B15: il10ra_site1_sap_20_mot_HHH_b2_03220_af2_000000223_0001_23_40_H_._HHH_b1_02199_af2_0001_0000500031_0000002_0_0001 (protein)
chain: SSSSSDEWYRLVKELIELLSEGDREKAEEVIERIEELAEEEGDKVLKWLVEFLEELVKESSSSSS
B16: il10ra_site1_sap_12_mot_HHH_b1_06788_af2_000000238_0001_19_36_H_._HHH_b2_07005_af2_0001_0000400017_0000001_0_0001_af2pred_0001 (protein)
chain: SSSSSEEIEKLLEELEEAIKRGDEREASHLILRIAKLIDELGDPELFERLLRIAALVTELGSSSS
B17: il10ra_site1_normal_mot_HHH_b1_00999_000000080_0001_41_55_H_._HHH_b2_05235_0001_0000300014_0000001_0 (protein)
chain: SSSSSSDVEELLEEAQELRERGNPEEAAEVLQRAVRHIFELGDKELLQELWELVRRIGSSSSSSS
B18: il10ra_site1_normal_mot_HHH_b2_05797_000000294_0001_1_19_H_._HHH_b2_06769_0001_0000300028_0000001_0 (protein)
chain: SSSSDEEDREYAEAALRFAKALKEAGDEEAARLLLRLAAEALKRANDEELLEELEELLEELSSSS
B19: il10ra_site1_normal_mot_HHH_b2_05454_000000273_0001_1_18_H_._HHH_b1_07670_0001_0000200029_0000001_0 (protein)
chain: SSSSSEEEERLEELLEELEEVVKEGDKERALRIVEELLRLAFRARDPEIFEKIWELAKRLASSSS
B20: il10ra_site1_normal_mot_HHH_b1_05056_000000217_0001_1_20_H_._HHH_b2_03866_0001_0000200011_0000001_0 (protein)
chain: SSSSSSEEREEVEELLEEAEHVDDLRELARILAEAVRFAYEGKDEEALQLVWEVVRRLFSSSSSS
B21: il10ra_site1_normal_mot_HHH_b2_03800_000000151_0001_21_37_H_._HHH_b1_01641_0001_0000300017_0000001_0_af2pred_0001 (protein)
chain: SSSSSDEEAREEAEELEEEAHKVDEEERFKLARRISELAKRYQDPRISEIAFRLLELLASSSSSS
B22: il10ra_site1_normal_mot_HHH_b1_05185_000000011_0001_22_39_H_._HHH_b1_05781_0001_0000300028_0000001_0 (protein)
chain: SSSSDEDERYVKLALRFIRALLESGDPEAARTLLKAAEDIAKQHNNEELLEELEQLREEIDSSSS
B23: il10ra_site1_normal_mot_8756ee2cf497b5429c717dfc0c0bcfd6_0001_000000186_0001_1_13_H_._HHH_b2_05079_af2_0001_0000100002_0000002_1_af2pred_dldesign_0_af2pred (protein)
chain: SSSSSSELEELKNLIKEIAELLYEGKPEEARELLEKAEELAKKLGNKTALATLDYLRRQIESSSS
B24: il10ra_site1_normal_mot_2fa031a62b9321f410fa37cb4b35ac9e_0001_af2_000000160_0001_1_14_H_._HHH_b1_04099_0001_0000300025_0000002_0 (protein)
chain: SSSSDAAELARELLEELIEAYENNDPEEFEEIFEEARRLLEEAGNDNAVAVLERIFRLEEGSSSS

Some of the results follow. Some results are limits rather than exact numbers.

The target in the assay is il10ra, Q13651. Briefly: yeast display titration.
For B1, the apparent Kd (as a rule, a dissociation constant that holds for the conditions of the assay) was “inactive: no binding seen”.

On to B2, for which the apparent Kd is inactive: > 794 nM.

On to B3, for which the “apparent Kd” value is “inactive: no binding seen”.

For the molecule B4, the apparent Kd is inactive: > 868 nM.

Turning to B5, the “apparent Kd” value was “inactive: no binding seen”.

With B6, the “apparent Kd” value was “inactive: no binding seen”.

As for B7, the “apparent Kd” value is “inactive: no binding seen”.

Turning to B8, the “apparent Kd” value was “inactive: no binding seen”.

Turning to B9, the “apparent Kd” value is “inactive: no binding seen”.

Consider B10, for which the “apparent Kd” value is “inactive: no binding seen”.

As for B11, the “apparent Kd” value is “inactive: no binding seen”.

Take B12: the “apparent Kd” value is “inactive: no binding seen”.

Take B13: the “apparent Kd” value is “inactive: no binding seen”.

As to B14, the “apparent Kd” value is “inactive: no binding seen”.

For the molecule B15, the “apparent Kd” value was “inactive: no binding seen”.

For the molecule B16, the “apparent Kd” value was “inactive: no binding seen”.

For B17, the “apparent Kd” value was “inactive: no binding seen”.

On to B18, for which the “apparent Kd” value is “inactive: no binding seen”.

On to B19, for which the “apparent Kd” value is “inactive: no binding seen”.

For the molecule B20, the “apparent Kd” value is “inactive: no binding seen”.

Regarding B21, the “apparent Kd” value was “inactive: no binding seen”.

In the case of B22, the “apparent Kd” value is “inactive: no binding seen”.

For the molecule B23, the “apparent Kd” value was “inactive: no binding seen”.

Turning to B24, the “apparent Kd” value is “inactive: no binding seen”.

The values are drawn from PMC10163288.
